No constants are given. Whether binding was seen depends on the method and setting. Binding seen in cells or lysates may run through a third protein. Some results given as binding are weak or reduced against the parent protein; the word gives no strength. For some of these results: Where a sequence is shown, tags or fusion partners need not be part of it.
T1: GFP-tagged LARGE (LARGE-GFP) (UniProt O95461)
T1 sequence: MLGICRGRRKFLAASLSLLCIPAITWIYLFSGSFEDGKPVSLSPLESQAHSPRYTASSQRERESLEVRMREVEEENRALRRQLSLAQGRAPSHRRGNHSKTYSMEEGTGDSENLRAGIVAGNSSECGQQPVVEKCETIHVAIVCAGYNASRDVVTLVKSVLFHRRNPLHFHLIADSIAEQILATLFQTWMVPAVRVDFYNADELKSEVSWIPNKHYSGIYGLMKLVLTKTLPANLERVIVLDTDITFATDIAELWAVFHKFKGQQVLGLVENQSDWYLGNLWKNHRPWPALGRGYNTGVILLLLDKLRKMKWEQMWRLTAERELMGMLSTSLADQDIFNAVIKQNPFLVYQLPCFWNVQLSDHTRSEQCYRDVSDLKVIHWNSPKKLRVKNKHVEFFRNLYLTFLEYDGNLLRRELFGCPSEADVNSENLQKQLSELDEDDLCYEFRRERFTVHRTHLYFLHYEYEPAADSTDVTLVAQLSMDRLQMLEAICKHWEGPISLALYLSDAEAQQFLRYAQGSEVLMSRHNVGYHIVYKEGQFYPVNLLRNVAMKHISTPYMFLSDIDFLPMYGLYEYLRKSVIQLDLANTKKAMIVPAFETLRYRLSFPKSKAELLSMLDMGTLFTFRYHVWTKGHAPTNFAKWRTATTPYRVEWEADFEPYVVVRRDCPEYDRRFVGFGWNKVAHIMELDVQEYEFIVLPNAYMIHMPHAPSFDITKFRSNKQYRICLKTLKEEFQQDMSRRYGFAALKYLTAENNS

Protein sequences, listed by entry. Tags and fused reporters are not part of them. Residues count along the entry.
UniProt P19490, residues 19-907: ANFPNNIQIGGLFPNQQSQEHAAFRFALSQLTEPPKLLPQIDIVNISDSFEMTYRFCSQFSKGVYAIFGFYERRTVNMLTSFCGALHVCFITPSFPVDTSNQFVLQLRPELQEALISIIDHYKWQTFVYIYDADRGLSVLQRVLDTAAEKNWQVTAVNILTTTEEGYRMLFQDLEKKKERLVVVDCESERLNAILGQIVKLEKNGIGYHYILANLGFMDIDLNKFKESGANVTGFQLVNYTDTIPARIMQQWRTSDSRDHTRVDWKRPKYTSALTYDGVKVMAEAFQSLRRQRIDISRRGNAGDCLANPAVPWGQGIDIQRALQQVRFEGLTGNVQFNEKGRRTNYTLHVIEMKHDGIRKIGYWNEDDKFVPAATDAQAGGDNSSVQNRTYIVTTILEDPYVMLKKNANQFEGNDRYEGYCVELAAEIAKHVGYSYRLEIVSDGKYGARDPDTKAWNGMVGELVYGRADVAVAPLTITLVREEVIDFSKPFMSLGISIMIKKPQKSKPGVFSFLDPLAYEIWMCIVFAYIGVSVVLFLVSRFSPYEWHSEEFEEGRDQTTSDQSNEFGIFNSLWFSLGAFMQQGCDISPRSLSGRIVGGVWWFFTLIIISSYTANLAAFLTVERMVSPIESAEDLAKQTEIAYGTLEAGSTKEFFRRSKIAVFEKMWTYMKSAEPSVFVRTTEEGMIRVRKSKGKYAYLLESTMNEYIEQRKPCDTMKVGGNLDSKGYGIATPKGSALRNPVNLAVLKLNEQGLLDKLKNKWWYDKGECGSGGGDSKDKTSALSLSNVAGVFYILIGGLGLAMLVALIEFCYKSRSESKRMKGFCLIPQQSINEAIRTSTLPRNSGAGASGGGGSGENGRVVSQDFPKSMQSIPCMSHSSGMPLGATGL
UniProt P23818, residues 19-907: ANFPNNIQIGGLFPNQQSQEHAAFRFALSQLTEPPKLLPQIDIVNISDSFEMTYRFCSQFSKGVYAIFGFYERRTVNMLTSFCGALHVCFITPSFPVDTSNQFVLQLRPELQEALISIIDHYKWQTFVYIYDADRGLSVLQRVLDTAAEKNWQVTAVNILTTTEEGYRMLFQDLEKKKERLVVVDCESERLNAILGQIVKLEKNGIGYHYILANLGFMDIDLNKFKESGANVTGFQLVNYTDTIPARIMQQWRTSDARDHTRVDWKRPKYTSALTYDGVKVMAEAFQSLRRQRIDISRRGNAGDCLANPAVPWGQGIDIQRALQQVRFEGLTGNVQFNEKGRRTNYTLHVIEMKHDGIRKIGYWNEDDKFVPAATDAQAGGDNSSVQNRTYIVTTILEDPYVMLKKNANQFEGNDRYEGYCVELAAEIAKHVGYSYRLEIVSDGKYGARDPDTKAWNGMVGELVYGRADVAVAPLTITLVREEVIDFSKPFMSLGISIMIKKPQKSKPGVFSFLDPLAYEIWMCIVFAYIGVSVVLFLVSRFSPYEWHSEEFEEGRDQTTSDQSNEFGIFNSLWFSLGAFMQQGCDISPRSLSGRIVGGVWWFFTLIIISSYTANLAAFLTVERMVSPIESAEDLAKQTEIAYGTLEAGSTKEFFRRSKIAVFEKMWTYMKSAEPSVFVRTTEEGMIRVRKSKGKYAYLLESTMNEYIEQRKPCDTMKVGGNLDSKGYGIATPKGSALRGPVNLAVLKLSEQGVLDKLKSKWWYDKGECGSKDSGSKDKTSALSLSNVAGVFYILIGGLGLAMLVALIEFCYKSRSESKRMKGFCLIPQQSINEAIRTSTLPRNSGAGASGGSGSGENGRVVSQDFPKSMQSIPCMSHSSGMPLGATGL
UniProt P19491, residues 22-883: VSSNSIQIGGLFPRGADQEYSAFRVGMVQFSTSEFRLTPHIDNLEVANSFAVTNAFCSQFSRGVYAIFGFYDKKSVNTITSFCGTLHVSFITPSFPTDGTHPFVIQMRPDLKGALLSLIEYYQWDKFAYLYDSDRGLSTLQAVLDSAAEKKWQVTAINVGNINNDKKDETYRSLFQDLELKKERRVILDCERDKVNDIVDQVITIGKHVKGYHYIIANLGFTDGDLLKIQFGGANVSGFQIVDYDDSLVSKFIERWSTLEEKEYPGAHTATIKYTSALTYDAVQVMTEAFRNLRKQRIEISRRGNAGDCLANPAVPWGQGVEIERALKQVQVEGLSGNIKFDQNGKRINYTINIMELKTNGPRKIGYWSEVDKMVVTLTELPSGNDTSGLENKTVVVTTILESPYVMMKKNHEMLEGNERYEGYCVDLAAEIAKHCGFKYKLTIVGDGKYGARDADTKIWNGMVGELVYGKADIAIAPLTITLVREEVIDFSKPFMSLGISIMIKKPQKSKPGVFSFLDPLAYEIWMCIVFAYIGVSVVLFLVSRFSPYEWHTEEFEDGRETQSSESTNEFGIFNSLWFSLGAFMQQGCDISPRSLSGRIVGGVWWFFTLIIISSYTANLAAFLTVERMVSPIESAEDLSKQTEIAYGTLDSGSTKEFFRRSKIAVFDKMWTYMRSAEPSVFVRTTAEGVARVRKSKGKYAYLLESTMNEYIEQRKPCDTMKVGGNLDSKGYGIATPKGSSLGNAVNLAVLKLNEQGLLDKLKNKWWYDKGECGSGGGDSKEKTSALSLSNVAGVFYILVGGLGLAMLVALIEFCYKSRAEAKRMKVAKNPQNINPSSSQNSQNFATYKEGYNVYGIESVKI


Assays:
Experiment in all cases: co-IP
[1] = target: T1, GFP-tagged LARGE (LARGE-GFP)
[2] = target: myc-tagged GluA1 (myc-GluA1) (UniProt P19490)
[3] = target: GluA1 (endogenous, cultured hippocampal neurons) (mouse or rat (endogenous in cultured hippocampal neurons)) (UniProt P23818)

| binding [1] | further results | Molecule |
| --- | --- | --- |
| binds | – | myc-tagged GluA1 (myc-GluA1) (from UniProt P19490 19-907) (receptor) |
| binds | – | myc-GluA2 (from UniProt P19491 22-883) (receptor) |
| – | binding [2]: binds | GFP-tagged LARGE (LARGE-GFP) (protein, UniProt O95461 1-756) MLGICRGRRKFLAASLSLLCIPAITWIYLFSGSFEDGKPVSLSPLESQAHSPRYTASSQRERESLEVRMREVEEENRALRRQLSLAQGRAPSHRRGNHSKTYSMEEGTGDSENLRAGIVAGNSSECGQQPVVEKCETIHVAIVCAGYNASRDVVTLVKSVLFHRRNPLHFHLIADSIAEQILATLFQTWMVPAVRVDFYNADELKSEVSWIPNKHYSGIYGLMKLVLTKTLPANLERVIVLDTDITFATDIAELWAVFHKFKGQQVLGLVENQSDWYLGNLWKNHRPWPALGRGYNTGVILLLLDKLRKMKWEQMWRLTAERELMGMLSTSLADQDIFNAVIKQNPFLVYQLPCFWNVQLSDHTRSEQCYRDVSDLKVIHWNSPKKLRVKNKHVEFFRNLYLTFLEYDGNLLRRELFGCPSEADVNSENLQKQLSELDEDDLCYEFRRERFTVHRTHLYFLHYEYEPAADSTDVTLVAQLSMDRLQMLEAICKHWEGPISLALYLSDAEAQQFLRYAQGSEVLMSRHNVGYHIVYKEGQFYPVNLLRNVAMKHISTPYMFLSDIDFLPMYGLYEYLRKSVIQLDLANTKKAMIVPAFETLRYRLSFPKSKAELLSMLDMGTLFTFRYHVWTKGHAPTNFAKWRTATTPYRVEWEADFEPYVVVRRDCPEYDRRFVGFGWNKVAHIMELDVQEYEFIVLPNAYMIHMPHAPSFDITKFRSNKQYRICLKTLKEEFQQDMSRRYGFAALKYLTAENNS |
| – | binding [3]: binds | LARGE (endogenous, cultured hippocampal neurons) (protein, UniProt Q9Z1M7 1-756) MLGICRGRRKFLAASLTLLCIPAITWIYLFAGSFEDGKPVSLSPLESQAHSPRYTASSQRERESLEVRVREVEEENRALRRQLSLAQGQSPAHHRGNHSKTYSMEEGTGDSENLRAGIVAGNSSECGQQPAVEKCETIHVAIVCAGYNASRDVVTLVKSVLFHRRNPLHFHLIADSIAEQILATLFQTWMVPAVRVDFYNADELKSEVSWIPNKHYSGIYGLMKLVLTKTLPANLERVIVLDTDITFATDIAELWAVFHKFKGQQVLGLVENQSDWYLGNLWKNHRPWPALGRGYNTGVILLLLDKLRKMKWEQMWRLTAERELMGMLSTSLADQDIFNAVIKQNPFLVYQLPCFWNVQLSDHTRSEQCYRDVSDLKVIHWNSPKKLRVKNKHVEFFRNLYLTFLEYDGNLLRRELFGCPSETDVNNENLQKQLSELDEDDLCYEFRRERFTVHRTHLYFLHYEFEPSADNTDVTLVAQLSMDRLQMLEAICKHWEGPISLALYLSDAEAQQFLRYAQGSEVLMSRQNVGYHIVYKEGQFYPVNLLRNVAMKHISTPYMFLSDIDFLPMYGLYEYLRKSVIQLDLANTKKAMIVPAFETLRYRLSFPKSKAELLSMLDMGTLFTFRYHVWTKGHAPTNFAKWRTATTPYQVEWEADFEPYVVVRRDCPEYDRRFVGFGWNKVAHIMELDAQEYEFTVLPNAYMIHMPHAPSFDITKFRSNKQYRICLKTLKEEFQQDMSRRYGFAALKYLTAENNS |

Reference: article doi:10.1101/236547
